Data as given in PubChem BioAssay AID1159584 (Peter MacCallum Cancer Centre, 2016)
Test: 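Knock-downs that harm CDH1-null cells more than parental MCF10A cells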 (primary screen). Cell system: human MCF10A breast epithelial cells, parental and CDH1-null. Reagent: siRNA against human genes. Measurement: 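Cell viability by CellTiter-Glo ATP luminescence, each line scaled to the mean of mock wells across plates, then CDH1-null over parental ratio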. Scale: CDH1-null / parental viability ratio: higher = CDH1-null cells survive relatively better than parental.
Here is a random part of about 18,000 reagents tested. Not all columns of the deposit are shown. Not stated in the record: the amount of reagent, the time to read-out.

Target gene	CDH1-null / parental viability ratio
PNMA6A (PNMA family member 6A)	1.2
MLH1 (mutL homolog 1)	1.17
MEAF6 (MYST/Esa1 associated factor 6)	1.44
HIRA (histone cell cycle regulator)	1.35
BLCAP (BLCAP apoptosis inducing factor)	1.17
DNAJC24 (DnaJ heat shock protein family (Hsp40) member C24)	1
CD164 (CD164 molecule)	1.02
SHPK (sedoheptulokinase)	0.97
KRT37 (keratin 37)	0.92
TAAR9 (trace amine associated receptor 9)	1.67
IL36RN (interleukin 36 receptor antagonist)	1.09
FRY (FRY microtubule binding protein)	1
HARS1 (histidyl-tRNA synthetase 1)	1.09
DPH6 (diphthamine biosynthesis 6)	1.23
MAP7 (microtubule associated protein 7)	1.27
MAP3K12 (mitogen-activated protein kinase kinase kinase 12)	0.79
TRIM9 (tripartite motif containing 9)	0.99
IFNE (interferon epsilon)	1.33
ANAPC10 (anaphase promoting complex subunit 10)	1.2
TMEM33 (transmembrane protein 33)	1.28
OTUD7B (OTU deubiquitinase 7B)	0.92
SPTLC1 (serine palmitoyltransferase long chain base subunit 1)	0.9
ANTKMT (adenine nucleotide translocase lysine methyltransferase)	0.94
PTGR2 (prostaglandin reductase 2)	0.62
ADARB2 (adenosine deaminase RNA specific B2 (inactive))	0.87
SRSF2 (serine and arginine rich splicing factor 2)	0.98
XPO5 (exportin 5)	1.14
CIRBP-AS1 (CIRBP antisense RNA 1)	1.12
MAT2B (methionine adenosyltransferase 2 non-catalytic beta subunit)	0.91
ADCY9 (adenylate cyclase 9)	0.95
AIPL1 (AIP like 1 HSP90 co-chaperone)	0.82
CDCP1 (CUB domain containing protein 1)	1.17
GLO1 (glyoxalase I)	1.15
VSIG1 (V-set and immunoglobulin domain containing 1)	1.06
MRPS23 (mitochondrial ribosomal protein S23)	0.88
SAXO6 (stabilizer of axonemal microtubules 6)	1.11
OOEP (oocyte expressed protein)	1.07
TIGD4 (tigger transposable element derived 4)	1.06
BRME1 (break repair meiotic recombinase recruitment factor 1)	1.18
GPKOW (G-patch domain and KOW motifs)	1.62
TRIM41 (tripartite motif containing 41)	0.98
FAM199X (family with sequence similarity 199, X-linked)	1.09
POLR1C (RNA polymerase I and III subunit C)	0.88
MAOA (monoamine oxidase A)	0.97
CRMP1 (collapsin response mediator protein 1)	1.07
GOLGB1 (golgin B1)	1.52

Targets above whose gene name starts with M or m (7):
Target gene	CDH1-null / parental viability ratio
MLH1 (mutL homolog 1)	1.17
MEAF6 (MYST/Esa1 associated factor 6)	1.44
MAP7 (microtubule associated protein 7)	1.27
MAP3K12 (mitogen-activated protein kinase kinase kinase 12)	0.79
MAT2B (methionine adenosyltransferase 2 non-catalytic beta subunit)	0.91
MRPS23 (mitochondrial ribosomal protein S23)	0.88
MAOA (monoamine oxidase A)	0.97
